No constants are given. Whether binding was seen depends on the method and setting. For some assays here: In cells and extracts the contact can be indirect. Some binding calls cover weakened binding; strength is not graded here. For some assays here: Sequences can lack the tags named with a protein. Each block holds one binder with its values, some of them ahead of it.
Experiments:
[1] = target: T1, GST-CED-9 (C. elegans) (UniProt P41958); test: in vitro (GST pull-down)
T1 sequence (looked up): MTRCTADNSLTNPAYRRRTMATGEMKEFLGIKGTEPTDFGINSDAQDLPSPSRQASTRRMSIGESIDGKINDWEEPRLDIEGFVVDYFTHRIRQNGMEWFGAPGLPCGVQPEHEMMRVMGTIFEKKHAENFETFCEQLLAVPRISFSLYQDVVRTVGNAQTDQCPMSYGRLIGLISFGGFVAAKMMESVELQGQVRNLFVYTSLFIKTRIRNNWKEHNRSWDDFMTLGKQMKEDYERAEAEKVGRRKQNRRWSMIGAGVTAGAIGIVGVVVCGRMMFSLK

Sequences of proteins named here, by UniProt entry; tags and fusion partners are left off.
UniProt P10415: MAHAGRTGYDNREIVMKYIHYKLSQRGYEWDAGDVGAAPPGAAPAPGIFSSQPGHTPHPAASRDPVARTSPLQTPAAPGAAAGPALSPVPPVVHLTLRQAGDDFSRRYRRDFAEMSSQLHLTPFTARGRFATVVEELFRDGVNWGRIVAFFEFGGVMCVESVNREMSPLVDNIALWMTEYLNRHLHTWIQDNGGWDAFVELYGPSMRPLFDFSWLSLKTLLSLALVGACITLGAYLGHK

[2] = target: T1, GST-CED-9 (C. elegans); test: glutathione-S-transferase pull-down
[3] = target: T1, GST-CED-9 (C. elegans); test: GST pull-down, 35S-labeled S.TAG-EGL-1 with GST-CED-9, SDS-PAGE and autoradiography
[4] = target: T2, C. elegans CED-9 protein (C. elegans) (UniProt P41958); test: yeast two-hybrid system
T2 sequence (looked up): T1 sequence (looked up)

[5] = target: human Bcl-2 protein (human) (UniProt P10415); test: yeast two-hybrid system

- binding [1]: binds
- binding [2]: binds
- binding [3]: binds
B1: S.TAG-EGL-1 (protein, not shown: small tags and cut ends)
chain: MSNVFDVQSSVFYNEKNMFYSSSQDFSSCEDSSQFADDSGFFDDSEISSIGYEIGSKLAAMCDDFDAQMMSYSAHASDRSLFHRLLDFFAF

- binding [4]: binds
- binding [5]: binds
B2: EGL-1 protein (protein)
chain: B1 chain

Source: patent publication US6596495
